Results reported in PubChem BioAssay AID540303 (National Center for Advancing Translational Sciences (NCATS), 2011).
Hit rate of the full screen: of about 330,000 compounds, about 1,000 (0.3%) were called active. Inconclusive means that the source gave no clear call. Such entries were picked first, then a sample of the others. Calls come from the whole dose curve; as a rule, active = well fitted inhibition curve with a large enough effect; inconclusive = small, poorly fitted or top-dose-only effect; inactive = no such curve, though single readings can be large or run the other way; tested in mouse RAW 264.7 cells. A potency beside an inconclusive call is a rough fit, not a confirmed value.

Assay: qHTS for Inhibitors of Cell Surface uPA Generation; note: nearly all actives have a fitted effect of over 55% in size
Conditions: cell surface uPA generation assay; series mostly up to 38.3 µM
Summary of the method: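 RAW 264.7, 4000 cells/well, o/n 37 C; cpd 1:5 dilution, up to 38.3 uM final; 24 h 37 C/5% CO2 with reagent; ATP-Lite lum. High ATP = LF entry blocked.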
Potency is the fitted concentration of half-maximal effect.

Which Potency does the source give for `CC(C)(C)c1ccc(OCC(=O)Nc2cccc(S(=O)(=O)NC3=NCCCCC3)c2)cc1` here?
Its Potency is inconclusive: 8.91 µM [inhibitor, single point].

Which Potency does the source give for `CSc1ccc(CN(C)C(=O)COc2ccc(C(=O)c3ccccc3)cc2)cc1` here?
The Potency was inconclusive: 3.55 µM [inhibitor, partial curve, poor fit].

For `Cc1ccc(C(=O)NCC(=O)OCC(=O)c2cc(C)n(Cc3ccco3)c2C)cc1`, which Potency is on record?
Its Potency is inconclusive: 12.6 µM [inhibitor, partial curve, poor fit].

Which Potency does the source give for `NC(=S)Nc1ccc(Cl)c(Cl)c1` here?
The Potency was inconclusive: 5.01 µM [inhibitor, partial curve, poor fit].

For `CCN(C(=O)CSc1nnc(-c2ccc(F)cc2)c2ccccc12)C1CCS(=O)(=O)C1` (stereo unspecified), which Potency is on record?
The Potency was inconclusive: 12.6 µM [inhibitor, single point].

For `CC(C)(O)[C@H]1Cc2cc3ccc(=O)oc3cc2O1`, which Potency is on record?
Its Potency is “inactive”.

With `Cc1ccn2cc(-c3ccc4c(c3)NC(=O)CO4)nc2c1` as the molecule, how does the Potency read?
The Potency was inconclusive: 10 µM [inhibitor, single point].

Which Potency does the source give for `Cc1nc2c(-c3ccc(F)cc3)cnn2c(N)c1-c1ccc(F)cc1` here?
The Potency was “inactive”.

Which Potency does the source give for `COc1ccc(C(=O)C(O)C(c2ccc(C)cc2)N2CCOCC2)cc1OC` (stereo unspecified) here?
Its Potency is “inactive”.

With `Cc1cccc2c1-c1sc(C(=O)N3CCCCC3)cc1CO2` as the molecule, how does the Potency read?
Its Potency is inconclusive: 28.2 µM [inhibitor, single point].

For `COc1ccc(NC(=O)Cc2ccsc2)cc1S(=O)(=O)N1CCOCC1`, which Potency is on record?
The Potency was “inactive”.

For `O=C(CNC(=O)c1ccco1)NCC(=O)OCC(=O)c1ccc(Cl)c([N+](=O)[O-])c1`, which Potency is on record?
Its Potency is inconclusive: 8.91 µM [inhibitor, partial curve, poor fit].

For `O=C(NOCc1ccccc1)c1ccccc1`, which Potency is on record?
Its Potency is inconclusive: 7.94 µM [inhibitor, partial curve].

Which Potency does the source give for `CC[C@]12c3[nH]c4ccc(OC)cc4c3CCN1C(=O)C(CC(=O)NCC13CC4CC(CC(C4)C1)C3)C[C@@H]2C(=O)N1CCN(C(=O)C2CC2)CC1` (stereo partly specified) here?
The Potency was inconclusive: 12.6 µM [inhibitor, single point].

Which Potency does the source give for `CCCSc1nsc(NC(=O)C(c2ccccc2)c2ccccc2)n1` here?
Its Potency is “inactive”.

For `COC(=O)c1c(-c2ccccc2)csc1N1C(=O)Nc2ccccc2N1O`, which Potency is on record?
Its Potency is inconclusive: 7.08 µM [inhibitor, partial curve, poor fit].

With `Cc1cc(/C=N/NC(=O)c2cccc(F)c2)c(C)n1-c1ccccc1` as the molecule, how does the Potency read?
The Potency was inconclusive: 12.6 µM [inhibitor, partial curve, poor fit].

With `O=C(CSc1nc2nc(-c3cccs3)cc(C(F)(F)F)c2c(=O)[nH]1)C(F)(F)F` as the molecule, how does the Potency read?
Its Potency is inconclusive: 12.6 µM [inhibitor, single point].

For `Cc1ccc(NC(=O)CN2CCCC2)cc1`, which Potency is on record?
Its Potency is inconclusive: 12.6 µM [inhibitor, single point].

For `O=C1c2ccccc2NC(c2ccc(Br)s2)N1O` (stereo unspecified), which Potency is on record?
Its Potency is inconclusive: 12.6 µM [inhibitor, single point].

For `Cc1nnc2c3ccccc3c(-c3ccccc3)nn12`, which Potency is on record?
Its Potency is inconclusive: 3.55 µM [inhibitor, partial curve, poor fit].

Which Potency does the source give for `CCOC(=O)CNC(=O)N1CCc2ccc(NC(=O)c3ccccc3Cl)cc2C1` here?
Its Potency is inconclusive: 11.2 µM [inhibitor, single point].

For `O=C(Cn1cnc2sc3c(c2c1=O)CCCC3)NCC(=O)Nc1c(F)cccc1F`, which Potency is on record?
The Potency was inconclusive: 5.62 µM [inhibitor, full curve, poor fit].

For `Cc1cc(C2=NNC(=NC3CC3)SC2)c(C)n1-c1ccccc1`, which Potency is on record?
The Potency was inconclusive: 4.47 µM [inhibitor, partial curve, poor fit].

Which Potency does the source give for `CN(Cc1cn(Cc2ccccc2)nc1-c1ccc2c(c1)OCO2)Cc1nccn1C` here?
Its Potency is “inactive”.

With `O=C(Cn1cc(C(=O)C(F)(F)F)c2ccccc21)Nc1ccccc1F` as the molecule, how does the Potency read?
The Potency was inconclusive: 1.58 µM [inhibitor, full curve, poor fit].

With `O=C1/C(=C/c2ccc3c(c2)OCO3)Oc2cc(OCC(=O)N3CCC[C@H]3C(=O)O)ccc21` as the molecule, how does the Potency read?
The Potency was inconclusive: 12.6 µM [inhibitor, partial curve, poor fit].

For `COc1cc(C(=S)N2CCOCC2)ccc1OS(=O)(=O)c1ccc(Cl)cc1`, which Potency is on record?
Its Potency is “inactive”.

With `O=C(Nc1nc(=O)c2ccccc2s1)c1ccc(F)cc1` as the molecule, how does the Potency read?
Its Potency is inconclusive: 8.91 µM [inhibitor, partial curve, poor fit].

For `COc1ccc2[nH]c3c(c2c1)CCN1C(=O)C(CC(=O)NCCC2=CCCCC2)C[C@H](C(=O)N(C(C)C)C(C)C)[C@@]31C` (stereo partly specified), which Potency is on record?
The Potency was inconclusive: 14.1 µM [inhibitor, single point].

With `CCC(=O)Nc1cccc(-c2cn3cccc(C)c3n2)c1` as the molecule, how does the Potency read?
The Potency was inconclusive: 6.31 µM [inhibitor, partial curve, poor fit].

Which Potency does the source give for `O=C(NCc1ccc(Cl)cc1)C1CCN(S(=O)(=O)c2cc([N+](=O)[O-])ccc2Cl)CC1` here?
The Potency was inconclusive: 11.2 µM [inhibitor, single point].

For `COc1ccc(CCNC(=O)c2ccc(NC(=O)CC3SC(N4CCCC4)=NC3=O)cc2)cc1OC` (stereo unspecified), which Potency is on record?
The Potency was “inactive”.

With `COc1cccc(/C=N/NC(=O)CNC(=O)c2ccco2)c1O` as the molecule, how does the Potency read?
The Potency was inconclusive: 10 µM [inhibitor, partial curve, poor fit].

For `CC(=O)Nc1ccc(C(=O)CCl)cc1`, which Potency is on record?
Its Potency is inconclusive: 12.6 µM [inhibitor, single point].

For `c1ccc(-c2noc(-c3ccc4c(c3)OCO4)n2)nc1`, which Potency is on record?
Its Potency is inconclusive: 1.26 µM [inhibitor, full curve, poor fit].

For `CCOc1cc(/C=N/NC(=O)c2ccccc2-n2cccc2)ccc1O`, which Potency is on record?
The Potency was active: 11.2 µM.

For `Cn1ccc2cc3c(cc21)CCN3C(=O)Nc1cccnc1`, which Potency is on record?
The Potency was inconclusive: 8.91 µM [inhibitor, partial curve, poor fit].

For `O=C(CNCc1ccccc1)Nc1ccc(Cl)cc1`, which Potency is on record?
The Potency was inconclusive: 3.16 µM [inhibitor, partial curve, poor fit].

For `CC(C)(C)n1ncc2c(=O)n(CC(=O)NCc3ccccc3)cnc21`, which Potency is on record?
The Potency was “inactive”.

Which Potency does the source give for `O=C(Nc1cccc(F)c1)N1CCC(c2ccccc2)CC1` here?
Its Potency is inconclusive: 3.16 µM [inhibitor, partial curve, poor fit].
